Source: PubChem BioAssay AID1259254 (NCATS, 2017)
Test: 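Gene knock-downs that lead to re-replication, shown by excess G2 DNA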 (primary screen). System: human HCT116 colorectal cancer cells. Reagent: single siRNA against human genes. Timing: 3 days. Detection: 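Nuclei stained with Hoechst and imaged; cell-cycle phase assigned by DNA content; G2 share scaled per plate, non-targeting siRNA 0%, GMNN siRNA 100%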. Reading the numbers: G2 robust z-score and G2 cells, % of GMNN control: higher = more G2 cells, more excess DNA replication. Hit rule: 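An siRNA counts as active if its G2 robust z-score lies at least 5 MADs above the screen median; here such calls match roughly 38% of GMNN control or more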.
Here is a random part of about 59,000 deposited reagents. In the full data, about 1,550 (2.6%) were called active. 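G2 share is only a proxy for re-replication; each gene was hit by three separate siRNAs, and active genes were retested.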 Reagents against one gene are numbered here. Further read-outs or replicates are left out here. No sequences are given here. Not stated in the record: the amount of reagent.

{"gene symbol":"EREG (epiregulin)","reagent":1,"G2 robust z-score":-0.239,"G2 cells, % of GMNN control":1.28,"outcome":"inactive"}
{"gene symbol":"EREG (epiregulin)","reagent":2,"G2 robust z-score":-0.00418,"G2 cells, % of GMNN control":2.94,"outcome":"inactive"}
{"gene symbol":"EREG (epiregulin)","reagent":3,"G2 robust z-score":3.21,"G2 cells, % of GMNN control":25.6,"outcome":"inactive"}
{"gene symbol":"SYNGR1 (synaptogyrin 1)","reagent":1,"G2 robust z-score":-0.718,"G2 cells, % of GMNN control":-2.09,"outcome":"inactive"}
{"gene symbol":"SYNGR1 (synaptogyrin 1)","reagent":2,"G2 robust z-score":-0.513,"G2 cells, % of GMNN control":-0.641,"outcome":"inactive"}
{"gene symbol":"SYNGR1 (synaptogyrin 1)","reagent":3,"G2 robust z-score":-0.154,"G2 cells, % of GMNN control":1.89,"outcome":"inactive"}
{"gene symbol":"ZNF780A (zinc finger protein 780A)","reagent":1,"G2 robust z-score":0.774,"G2 cells, % of GMNN control":8.41,"outcome":"inactive"}
{"gene symbol":"ZNF780A (zinc finger protein 780A)","reagent":2,"G2 robust z-score":0.486,"G2 cells, % of GMNN control":6.38,"outcome":"inactive"}
{"gene symbol":"ZNF780A (zinc finger protein 780A)","reagent":3,"G2 robust z-score":-0.217,"G2 cells, % of GMNN control":1.44,"outcome":"inactive"}
{"gene symbol":"POLR3H (RNA polymerase III subunit H)","reagent":1,"G2 robust z-score":-0.921,"G2 cells, % of GMNN control":-3.51,"outcome":"inactive"}
{"gene symbol":"POLR3H (RNA polymerase III subunit H)","reagent":2,"G2 robust z-score":-0.425,"G2 cells, % of GMNN control":-0.0219,"outcome":"inactive"}
{"gene symbol":"POLR3H (RNA polymerase III subunit H)","reagent":3,"G2 robust z-score":0.14,"G2 cells, % of GMNN control":3.95,"outcome":"inactive"}
{"gene symbol":"NFYB (nuclear transcription factor Y subunit beta)","reagent":1,"G2 robust z-score":1.32,"G2 cells, % of GMNN control":12.2,"outcome":"inactive"}
{"gene symbol":"NFYB (nuclear transcription factor Y subunit beta)","reagent":2,"G2 robust z-score":-0.335,"G2 cells, % of GMNN control":0.611,"outcome":"inactive"}
{"gene symbol":"NFYB (nuclear transcription factor Y subunit beta)","reagent":3,"G2 robust z-score":0.778,"G2 cells, % of GMNN control":8.44,"outcome":"inactive"}
{"gene symbol":"LRMDA (leucine rich melanocyte differentiation associated)","reagent":1,"G2 robust z-score":0.127,"G2 cells, % of GMNN control":3.86,"outcome":"inactive"}
{"gene symbol":"LRMDA (leucine rich melanocyte differentiation associated)","reagent":2,"G2 robust z-score":0.458,"G2 cells, % of GMNN control":6.19,"outcome":"inactive"}
{"gene symbol":"LRMDA (leucine rich melanocyte differentiation associated)","reagent":3,"G2 robust z-score":0.24,"G2 cells, % of GMNN control":4.66,"outcome":"inactive"}
{"gene symbol":"COL7A1 (collagen type VII alpha 1 chain)","reagent":1,"G2 robust z-score":0.147,"G2 cells, % of GMNN control":4,"outcome":"inactive"}
{"gene symbol":"COL7A1 (collagen type VII alpha 1 chain)","reagent":2,"G2 robust z-score":-0.57,"G2 cells, % of GMNN control":-1.05,"outcome":"inactive"}
{"gene symbol":"COL7A1 (collagen type VII alpha 1 chain)","reagent":3,"G2 robust z-score":2.77,"G2 cells, % of GMNN control":22.4,"outcome":"inactive"}
{"gene symbol":"PHLDB3 (pleckstrin homology like domain family B member 3)","reagent":1,"G2 robust z-score":0.915,"G2 cells, % of GMNN control":9.41,"outcome":"inactive"}
{"gene symbol":"PHLDB3 (pleckstrin homology like domain family B member 3)","reagent":2,"G2 robust z-score":0.893,"G2 cells, % of GMNN control":9.25,"outcome":"inactive"}
{"gene symbol":"PHLDB3 (pleckstrin homology like domain family B member 3)","reagent":3,"G2 robust z-score":0.177,"G2 cells, % of GMNN control":4.21,"outcome":"inactive"}
{"gene symbol":"PHLDB3 (pleckstrin homology like domain family B member 3)","reagent":4,"G2 robust z-score":1.68,"G2 cells, % of GMNN control":14.8,"outcome":"inactive"}
{"gene symbol":"PHLDB3 (pleckstrin homology like domain family B member 3)","reagent":5,"G2 robust z-score":1.42,"G2 cells, % of GMNN control":12.9,"outcome":"inactive"}
{"gene symbol":"PHLDB3 (pleckstrin homology like domain family B member 3)","reagent":6,"G2 robust z-score":1.47,"G2 cells, % of GMNN control":13.3,"outcome":"inactive"}

Quoted from above (4 entries):
{"gene symbol":"NFYB (nuclear transcription factor Y subunit beta)","reagent":1,"G2 robust z-score":1.32,"G2 cells, % of GMNN control":12.2,"outcome":"inactive"}
{"gene symbol":"NFYB (nuclear transcription factor Y subunit beta)","reagent":2,"G2 robust z-score":-0.335,"G2 cells, % of GMNN control":0.611,"outcome":"inactive"}
{"gene symbol":"NFYB (nuclear transcription factor Y subunit beta)","reagent":3,"G2 robust z-score":0.778,"G2 cells, % of GMNN control":8.44,"outcome":"inactive"}
{"gene symbol":"LRMDA (leucine rich melanocyte differentiation associated)","reagent":1,"G2 robust z-score":0.127,"G2 cells, % of GMNN control":3.86,"outcome":"inactive"}
